Data taken from the GenesisPotency data set.
Screen size: about 390,000 compounds; about 17,000 (4.4%) were called active. Not shown: some 8% with an inconclusive outcome. The call rests on the fitted dose curve; in most records, active means well fitted inhibition curve with a large enough effect; inconclusive means small, poorly fitted or top-dose-only effect; inactive means no such curve, though single readings can be large or run the other way. Some of the results follow.

target: T1, Lysine-specific demethylase 4A, Homo sapiens (UniProt O75164); assay: qHTS Assay for Inhibitors of JMJD2A-Tudor Domain
T1 sequence (whole entry): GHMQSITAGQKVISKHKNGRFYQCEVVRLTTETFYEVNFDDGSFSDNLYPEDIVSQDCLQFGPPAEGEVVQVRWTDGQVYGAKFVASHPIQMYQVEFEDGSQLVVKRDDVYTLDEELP

Row | Compound | outcome
1 | CCCC[N+](CCCC)(CCCC)CCCC.O=c1ccn([C@@H]2O[C@H](COS(=O)(=O)[O-])[C@@H](O)[C@H]2O)c(=O)[nH]1 | inactive
